Results are given in words; binding and its absence hold for the method and conditions named. A result given as binding can be weak or reduced; the word gives no strength. For some of these results: Binding seen in cells or lysates may run through a third protein. Values belong to the molecule of their own block, whether it stands above or below them.
Tests used:
[1] = biological target: SF-CG2051/Hat1 (S2 cells) (Drosophila melanogaster) (UniProt Q0KIB3); test: co-IP; SEC fraction B15 (CG2051/Hat1 peak) of S2 nuclear extract; IP with antibodies against Flag-CG2051, western blot
[2] = biological target: SF-CG2051/Hat1 (S2 cells) (Drosophila melanogaster) (UniProt Q0KIB3); test: SEC; Superose 6 (100 ml) of nuclear extract from S2 cells stably expressing SF-CG2051; 30 mM Tris/HCl pH 8, 200 mM NaCl, 2 mM EDTA, 10% glycerol; fractions analysed by western blot
[3] = biological target: CAL1 (Chromosome Alignment Specific 1), endogenous (Drosophila melanogaster (endogenous in S2)); test: co-IP; SEC fraction B13 (FACT-CAL1 peak) of S2 nuclear extract; IP with antibodies against CENP-A or CAL1, western blot

Chains of the proteins cited; added tags and fusions are not shown. Lines headed by an entry give the natural chain unless they say otherwise; changes in a name come on top.
UniProt Q0KIB3: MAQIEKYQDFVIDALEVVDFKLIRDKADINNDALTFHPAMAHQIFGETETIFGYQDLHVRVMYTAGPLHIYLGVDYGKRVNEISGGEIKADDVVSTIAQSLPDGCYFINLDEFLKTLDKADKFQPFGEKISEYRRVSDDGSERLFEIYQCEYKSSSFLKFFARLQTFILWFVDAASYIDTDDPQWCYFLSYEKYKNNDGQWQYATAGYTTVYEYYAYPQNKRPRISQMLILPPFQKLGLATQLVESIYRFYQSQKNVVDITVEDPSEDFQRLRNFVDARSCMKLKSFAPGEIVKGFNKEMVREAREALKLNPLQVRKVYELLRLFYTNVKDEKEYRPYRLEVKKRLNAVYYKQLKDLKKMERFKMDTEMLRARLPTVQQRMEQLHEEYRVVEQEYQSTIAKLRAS
UniProt Q24572: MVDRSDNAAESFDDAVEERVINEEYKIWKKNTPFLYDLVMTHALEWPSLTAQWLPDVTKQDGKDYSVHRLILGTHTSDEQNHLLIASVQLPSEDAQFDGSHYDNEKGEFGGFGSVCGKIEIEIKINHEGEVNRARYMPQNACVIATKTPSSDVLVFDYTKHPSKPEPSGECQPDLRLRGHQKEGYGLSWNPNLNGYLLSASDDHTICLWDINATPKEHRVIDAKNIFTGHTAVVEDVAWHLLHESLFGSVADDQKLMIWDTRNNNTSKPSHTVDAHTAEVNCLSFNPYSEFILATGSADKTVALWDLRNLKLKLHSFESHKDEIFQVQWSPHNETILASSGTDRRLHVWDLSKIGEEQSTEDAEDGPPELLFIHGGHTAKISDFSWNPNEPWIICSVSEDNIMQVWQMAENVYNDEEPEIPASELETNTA
UniProt Q8IRG6: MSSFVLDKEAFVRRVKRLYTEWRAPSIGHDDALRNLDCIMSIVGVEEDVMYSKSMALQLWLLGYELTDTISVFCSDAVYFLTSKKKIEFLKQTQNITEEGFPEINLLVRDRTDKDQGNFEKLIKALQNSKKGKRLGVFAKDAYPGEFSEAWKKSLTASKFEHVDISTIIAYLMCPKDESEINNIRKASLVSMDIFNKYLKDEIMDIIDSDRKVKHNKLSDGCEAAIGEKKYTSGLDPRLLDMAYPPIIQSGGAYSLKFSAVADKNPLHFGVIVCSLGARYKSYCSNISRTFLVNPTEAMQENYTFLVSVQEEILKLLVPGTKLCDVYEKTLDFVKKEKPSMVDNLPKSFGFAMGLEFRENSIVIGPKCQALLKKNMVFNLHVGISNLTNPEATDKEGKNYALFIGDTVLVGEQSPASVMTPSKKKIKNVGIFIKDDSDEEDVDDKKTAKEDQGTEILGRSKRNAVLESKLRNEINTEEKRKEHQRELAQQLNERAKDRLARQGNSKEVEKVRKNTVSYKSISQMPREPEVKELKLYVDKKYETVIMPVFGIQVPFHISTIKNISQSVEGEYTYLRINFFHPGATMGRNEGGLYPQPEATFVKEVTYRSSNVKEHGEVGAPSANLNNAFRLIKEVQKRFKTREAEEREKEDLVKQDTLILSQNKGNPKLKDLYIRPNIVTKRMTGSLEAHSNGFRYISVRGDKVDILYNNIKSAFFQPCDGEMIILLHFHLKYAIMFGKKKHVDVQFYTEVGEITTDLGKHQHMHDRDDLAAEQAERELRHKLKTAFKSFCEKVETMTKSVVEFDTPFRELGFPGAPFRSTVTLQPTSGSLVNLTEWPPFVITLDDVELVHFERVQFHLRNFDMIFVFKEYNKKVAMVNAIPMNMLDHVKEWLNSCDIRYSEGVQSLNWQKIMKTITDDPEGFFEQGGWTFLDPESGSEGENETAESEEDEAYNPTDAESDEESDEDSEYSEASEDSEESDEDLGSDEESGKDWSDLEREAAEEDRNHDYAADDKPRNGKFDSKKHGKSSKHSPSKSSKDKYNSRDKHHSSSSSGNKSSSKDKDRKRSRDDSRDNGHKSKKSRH
UniProt Q9V6Q2: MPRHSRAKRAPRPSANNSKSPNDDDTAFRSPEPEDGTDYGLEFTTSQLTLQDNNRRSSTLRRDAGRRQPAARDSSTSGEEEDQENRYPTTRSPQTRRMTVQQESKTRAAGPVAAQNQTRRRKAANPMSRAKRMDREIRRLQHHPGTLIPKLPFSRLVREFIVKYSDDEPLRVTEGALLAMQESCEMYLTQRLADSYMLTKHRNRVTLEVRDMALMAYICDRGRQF

binding [1]: binds
Molecule: Caf1 (Rbap46/48), endogenous (from UniProt Q24572 1-430)

binding [1]: no binding
binding [2]: no binding
Molecule: FACT subunit Dre4, endogenous (from UniProt Q8IRG6 1-1083)

Second part, the molecule before the results:

Molecule: CENP-A/Cid (endogenous) (from UniProt Q9V6Q2 1-225)
binding [1]: binds
binding [2]: binds

B1: FACT subunit Ssrp, endogenous (protein, UniProt Q05344 1-723)
chain: MTDSLEYNDINAEVRGVLCSGRLKMTEQNIIFKNTKTGKVEQISAEDIDLINSQKFVGTWGLRVFTKGGVLHRFTGFRDSEHEKLGKFIKAAYSQEMVEKEMCVKGWNWGTARFMGSVLSFDKESKTIFEVPLSHVSQCVTGKNEVTLEFHQNDDAPVGLLEMRFHIPAVESAEEDPVDKFHQNVMSKASVISASGESIAIFREIQILTPRGRYDIKIFSTFFQLHGKTFDYKIPMDSVLRLFMLPHKDSRQMFFVLSLDPPIKQGQTRYHYLVLLFAPDEETTIELPFSEAELRDKYEGKLEKEISGPVYEVMGKVMKVLIGRKITGPGNFIGHSGTAAVGCSFKAAAGYLYPLERGFIYIHKPPLHIRFEEISSVNFARSGGSTRSFDFEVTLKNGTVHIFSSIEKEEYAKLFDYITQKKLHVSNMGKDKSGYKDVDFGDSDNENEPDAYLARLKAEAREKEEDDDDGDSDEESTDEDFKPNENESDVAEEYDSNVESDSDDDSDASGGGGDSDGAKKKKEKKSEKKEKKEKKHKEKERTKKPSKKKKDSGKPKRATTAFMLWLNDTRESIKRENPGIKVTEIAKKGGEMWKELKDKSKWEDAAAKDKQRYHDEMRNYKPEAGGDSDNEKGGKSSKKRKTEPSPSKKANTSGSGFKSKEYISDDDSTSSDDEKDNEPAKKKSKPPSDGDAKKKKAKSESEPEESEEDSNASDEDEEDEASD
binding [1]: no binding
binding [3]: binds weakly
